{"source": "PubChem BioAssay AID504793 (Drosophila RNAi Screening Center, 2011)", "screen": "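Genes required for cells to halt at G2/M after double-strand DNA breaks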 (primary screen)", "system": "Drosophila S2R+ cells", "reagents": "long dsRNA against Drosophila genes, about 0.25 µg dsRNA per well", "timing": "4 days of dsRNA, then 4 hours of drug before read-out", "challenge": "doxorubicin 0.5 µM for 4 hours to cause double-strand breaks, in cells also given a low, harmless dose of dsRNA against nbs to sensitise the assay", "read-out": "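Mitotic index as the number of phospho-histone H3-positive cells in each well following doxorubicin, given as raw counts without normalisation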", "reading the numbers": "mitotic cells: higher = more cells in mitosis, weaker G2 arrest", "rule for the call": "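a call needs confirmation in secondary tests, with other dsRNAs and a check of mitotic timing without damage, not just a high primary count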", "meaning of the calls": "active = confirmed in follow-up tests; inactive = not confirmed", "note": "The deposit covers about 23,000 reagents; below is a random part of those that have a named target and a result. Of all reagents, 62 (0.27%) were called active. 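Calls come from follow-up tests whose scores are not deposited, so confirmed genes may have low counts here; counts are not normalised per plate.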 Raw values are not corrected between plates. Names joined by + are all predicted targets of the reagent."}
{"target": "CG31740", "dsRNA": "DRSC01619", "mitotic cells, replicate 1": 4, "Call": "inactive"}
{"target": "futsch", "dsRNA": "DRSC17688", "mitotic cells, replicate 1": 6, "Call": "inactive"}
{"target": "futsch", "dsRNA": "DRSC17949", "mitotic cells, replicate 1": 8, "mitotic cells, replicate 2": 9, "Call": "inactive"}
{"target": "futsch", "dsRNA": "DRSC17952", "mitotic cells, replicate 1": 3, "Call": "inactive"}
{"target": "futsch", "dsRNA": "DRSC18543", "mitotic cells, replicate 1": 17, "Call": "inactive"}
{"target": "futsch", "dsRNA": "DRSC26427", "mitotic cells, replicate 1": 7, "Call": "inactive"}
{"target": "Rpn12", "dsRNA": "DRSC11275", "mitotic cells, replicate 1": 52, "Call": "inactive"}
{"target": "Rpn12", "dsRNA": "DRSC28589", "mitotic cells, replicate 1": 46, "Call": "inactive"}
{"target": "CG10418", "dsRNA": "DRSC09720", "mitotic cells, replicate 1": 5, "Call": "inactive"}
{"target": "agt", "dsRNA": "DRSC12611", "mitotic cells, replicate 1": 2, "Call": "inactive"}
{"target": "CG3829", "dsRNA": "DRSC04423", "mitotic cells, replicate 1": 10, "Call": "inactive"}
{"target": "nsr", "dsRNA": "DRSC04427", "mitotic cells, replicate 1": 7, "Call": "inactive"}
{"target": "nsr", "dsRNA": "DRSC22806", "mitotic cells, replicate 1": 12, "Call": "inactive"}
{"target": "CG7044", "dsRNA": "DRSC16180", "mitotic cells, replicate 1": 8, "Call": "inactive"}
{"target": "CG6638", "dsRNA": "DRSC10680", "mitotic cells, replicate 1": 3, "Call": "inactive"}
{"target": "CG6638", "dsRNA": "DRSC24246", "mitotic cells, replicate 1": 2, "Call": "inactive"}
{"target": "IntS10", "dsRNA": "DRSC08173", "mitotic cells, replicate 1": 3, "Call": "inactive"}

3 neighbouring reagents from above, quoted:
{"target": "CG7044", "dsRNA": "DRSC16180", "mitotic cells, replicate 1": 8, "Call": "inactive"}
{"target": "CG6638", "dsRNA": "DRSC10680", "mitotic cells, replicate 1": 3, "Call": "inactive"}
{"target": "CG6638", "dsRNA": "DRSC24246", "mitotic cells, replicate 1": 2, "Call": "inactive"}

Additional entries follow.
{"target": "Apl", "dsRNA": "DRSC10350", "mitotic cells, replicate 1": 7, "Call": "inactive"}
{"target": "CG17575", "dsRNA": "DRSC06682", "mitotic cells, replicate 1": 9, "Call": "inactive"}
{"target": "CG17575", "dsRNA": "DRSC26534", "mitotic cells, replicate 1": 4, "Call": "inactive"}
{"target": "CG13579", "dsRNA": "DRSC04215", "mitotic cells, replicate 1": 4, "Call": "inactive"}
{"target": "CG13579", "dsRNA": "DRSC25603", "mitotic cells, replicate 1": 5, "Call": "inactive"}
{"target": "S6k", "dsRNA": "DRSC11276", "mitotic cells, replicate 1": 5, "Call": "inactive"}
{"target": "CG7406", "dsRNA": "DRSC20042", "mitotic cells, replicate 1": 5, "Call": "inactive"}
{"target": "CG7406", "dsRNA": "DRSC28709", "Call": "inactive"}
{"target": "Tusp", "dsRNA": "DRSC15838", "mitotic cells, replicate 1": 17, "Call": "inactive"}
{"target": "CG4074 + CG4186", "dsRNA": "DRSC11753", "mitotic cells, replicate 1": 3, "Call": "inactive"}
{"target": "Hmr", "dsRNA": "DRSC17740", "mitotic cells, replicate 1": 4, "Call": "inactive"}
{"target": "Lrp4", "dsRNA": "DRSC20118", "mitotic cells, replicate 1": 6, "Call": "inactive"}
{"target": "Pgm1", "dsRNA": "DRSC10490", "mitotic cells, replicate 1": 2, "Call": "inactive"}
{"target": "Pgm1", "dsRNA": "DRSC28517", "mitotic cells, replicate 1": 5, "Call": "inactive"}
{"target": "CG14450", "dsRNA": "DRSC11707", "mitotic cells, replicate 1": 3, "Call": "inactive"}
{"target": "CG14450", "dsRNA": "DRSC29442", "mitotic cells, replicate 1": 8, "Call": "inactive"}
{"target": "CG32591", "dsRNA": "DRSC19063", "mitotic cells, replicate 1": 27, "Call": "inactive"}
